Assay results as given in PMC12583571.
These are yes or no findings as the source states them, for the method shown. Binding seen in cells or lysates may run through a third protein. Some binding calls cover weakened binding; strength is not graded here.

Sequences of proteins named here, by UniProt entry; tags and fusion partners are left off.
UniProt P42858: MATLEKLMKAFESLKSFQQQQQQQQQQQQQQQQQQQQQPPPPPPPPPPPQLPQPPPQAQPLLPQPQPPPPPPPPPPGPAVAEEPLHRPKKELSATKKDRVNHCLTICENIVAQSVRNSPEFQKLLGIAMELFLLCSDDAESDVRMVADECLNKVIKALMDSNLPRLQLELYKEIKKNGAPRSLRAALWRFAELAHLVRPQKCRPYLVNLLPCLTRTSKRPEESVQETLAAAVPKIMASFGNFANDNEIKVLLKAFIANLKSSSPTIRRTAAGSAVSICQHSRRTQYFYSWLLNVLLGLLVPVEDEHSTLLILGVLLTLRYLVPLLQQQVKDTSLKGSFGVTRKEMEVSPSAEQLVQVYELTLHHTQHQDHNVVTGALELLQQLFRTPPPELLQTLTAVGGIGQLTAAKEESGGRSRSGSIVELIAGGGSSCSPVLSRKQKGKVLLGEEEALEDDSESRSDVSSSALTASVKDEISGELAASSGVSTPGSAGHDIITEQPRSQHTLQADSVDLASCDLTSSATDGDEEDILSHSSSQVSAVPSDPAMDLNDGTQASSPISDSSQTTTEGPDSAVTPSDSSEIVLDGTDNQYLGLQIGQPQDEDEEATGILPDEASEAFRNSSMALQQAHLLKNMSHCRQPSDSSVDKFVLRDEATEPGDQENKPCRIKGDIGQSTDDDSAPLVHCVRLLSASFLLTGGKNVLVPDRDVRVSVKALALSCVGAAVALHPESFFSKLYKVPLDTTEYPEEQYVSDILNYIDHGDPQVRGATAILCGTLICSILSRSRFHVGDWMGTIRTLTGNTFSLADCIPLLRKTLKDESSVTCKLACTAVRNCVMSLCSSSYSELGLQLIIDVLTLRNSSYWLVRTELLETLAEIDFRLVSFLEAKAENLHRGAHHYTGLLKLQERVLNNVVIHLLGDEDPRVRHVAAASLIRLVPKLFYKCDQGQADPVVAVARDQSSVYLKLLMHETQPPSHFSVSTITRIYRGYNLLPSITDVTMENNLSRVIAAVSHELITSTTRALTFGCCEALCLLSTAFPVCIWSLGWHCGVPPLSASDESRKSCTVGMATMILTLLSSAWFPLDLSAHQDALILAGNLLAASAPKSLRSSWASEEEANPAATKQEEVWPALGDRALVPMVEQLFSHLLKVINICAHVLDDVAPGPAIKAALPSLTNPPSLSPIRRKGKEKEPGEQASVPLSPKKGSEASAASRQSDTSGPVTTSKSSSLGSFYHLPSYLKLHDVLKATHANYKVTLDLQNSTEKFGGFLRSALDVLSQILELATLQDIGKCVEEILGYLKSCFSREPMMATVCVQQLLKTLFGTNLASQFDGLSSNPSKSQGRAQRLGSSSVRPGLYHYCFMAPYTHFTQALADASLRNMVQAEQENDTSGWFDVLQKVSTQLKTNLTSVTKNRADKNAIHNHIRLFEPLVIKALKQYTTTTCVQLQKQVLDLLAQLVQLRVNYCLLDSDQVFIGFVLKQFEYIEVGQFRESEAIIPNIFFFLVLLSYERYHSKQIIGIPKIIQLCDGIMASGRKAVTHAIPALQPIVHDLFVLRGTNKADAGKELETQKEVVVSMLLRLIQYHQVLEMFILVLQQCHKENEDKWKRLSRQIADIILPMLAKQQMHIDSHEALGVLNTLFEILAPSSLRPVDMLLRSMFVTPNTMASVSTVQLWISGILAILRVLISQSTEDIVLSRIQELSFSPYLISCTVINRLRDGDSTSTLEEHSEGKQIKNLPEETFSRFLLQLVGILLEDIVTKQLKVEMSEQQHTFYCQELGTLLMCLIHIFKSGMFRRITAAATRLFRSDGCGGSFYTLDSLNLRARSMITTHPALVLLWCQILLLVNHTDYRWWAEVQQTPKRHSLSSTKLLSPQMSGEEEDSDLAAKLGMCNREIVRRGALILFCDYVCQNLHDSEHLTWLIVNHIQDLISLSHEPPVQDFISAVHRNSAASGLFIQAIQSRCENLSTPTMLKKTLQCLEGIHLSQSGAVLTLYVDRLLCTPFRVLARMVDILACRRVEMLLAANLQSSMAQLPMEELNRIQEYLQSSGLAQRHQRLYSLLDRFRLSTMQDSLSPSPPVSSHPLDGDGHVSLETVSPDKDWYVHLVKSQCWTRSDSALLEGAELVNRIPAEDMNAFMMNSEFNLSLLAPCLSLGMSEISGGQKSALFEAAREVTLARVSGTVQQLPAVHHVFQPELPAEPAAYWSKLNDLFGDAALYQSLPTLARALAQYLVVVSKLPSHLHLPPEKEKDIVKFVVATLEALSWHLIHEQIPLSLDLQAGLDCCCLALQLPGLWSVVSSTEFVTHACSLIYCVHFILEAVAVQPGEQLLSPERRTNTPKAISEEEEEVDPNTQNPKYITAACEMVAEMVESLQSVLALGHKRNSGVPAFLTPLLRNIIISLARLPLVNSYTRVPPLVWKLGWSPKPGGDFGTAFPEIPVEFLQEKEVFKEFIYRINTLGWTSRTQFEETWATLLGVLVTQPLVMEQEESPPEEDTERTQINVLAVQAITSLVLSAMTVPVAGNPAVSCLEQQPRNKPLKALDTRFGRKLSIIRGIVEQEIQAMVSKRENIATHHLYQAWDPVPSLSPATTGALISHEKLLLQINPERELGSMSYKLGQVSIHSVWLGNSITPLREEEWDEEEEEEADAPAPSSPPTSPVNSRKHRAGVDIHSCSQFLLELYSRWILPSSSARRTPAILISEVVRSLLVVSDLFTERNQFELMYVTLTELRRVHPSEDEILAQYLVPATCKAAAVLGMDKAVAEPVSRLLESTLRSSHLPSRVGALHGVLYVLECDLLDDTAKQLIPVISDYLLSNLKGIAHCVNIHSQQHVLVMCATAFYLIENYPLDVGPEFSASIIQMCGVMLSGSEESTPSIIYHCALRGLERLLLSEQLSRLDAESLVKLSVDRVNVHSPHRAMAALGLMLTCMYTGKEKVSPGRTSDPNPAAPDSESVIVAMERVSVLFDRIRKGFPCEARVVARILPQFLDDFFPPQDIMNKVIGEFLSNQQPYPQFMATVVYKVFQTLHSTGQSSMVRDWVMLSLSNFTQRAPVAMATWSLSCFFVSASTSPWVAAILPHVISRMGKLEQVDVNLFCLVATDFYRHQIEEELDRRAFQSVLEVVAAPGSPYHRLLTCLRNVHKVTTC
UniProt Q8VBV4: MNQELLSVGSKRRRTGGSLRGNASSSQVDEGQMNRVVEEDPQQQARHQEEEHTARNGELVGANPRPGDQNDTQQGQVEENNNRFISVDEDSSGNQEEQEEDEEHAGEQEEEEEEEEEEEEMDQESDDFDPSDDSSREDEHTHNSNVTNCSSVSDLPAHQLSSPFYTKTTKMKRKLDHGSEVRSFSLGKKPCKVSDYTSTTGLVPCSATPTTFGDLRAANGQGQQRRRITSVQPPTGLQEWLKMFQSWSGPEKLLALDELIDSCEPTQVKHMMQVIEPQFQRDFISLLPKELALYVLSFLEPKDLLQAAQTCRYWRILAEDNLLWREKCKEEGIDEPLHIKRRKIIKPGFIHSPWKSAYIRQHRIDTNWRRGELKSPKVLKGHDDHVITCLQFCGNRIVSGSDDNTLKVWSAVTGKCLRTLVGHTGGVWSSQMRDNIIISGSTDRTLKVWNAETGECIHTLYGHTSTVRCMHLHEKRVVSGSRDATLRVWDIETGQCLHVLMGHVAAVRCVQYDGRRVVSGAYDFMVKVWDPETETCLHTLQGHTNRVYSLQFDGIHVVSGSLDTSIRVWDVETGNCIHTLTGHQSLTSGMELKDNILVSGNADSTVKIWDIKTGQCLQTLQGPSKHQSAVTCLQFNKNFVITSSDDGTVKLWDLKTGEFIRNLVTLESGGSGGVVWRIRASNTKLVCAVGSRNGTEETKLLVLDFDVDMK
UniProt Q969H0: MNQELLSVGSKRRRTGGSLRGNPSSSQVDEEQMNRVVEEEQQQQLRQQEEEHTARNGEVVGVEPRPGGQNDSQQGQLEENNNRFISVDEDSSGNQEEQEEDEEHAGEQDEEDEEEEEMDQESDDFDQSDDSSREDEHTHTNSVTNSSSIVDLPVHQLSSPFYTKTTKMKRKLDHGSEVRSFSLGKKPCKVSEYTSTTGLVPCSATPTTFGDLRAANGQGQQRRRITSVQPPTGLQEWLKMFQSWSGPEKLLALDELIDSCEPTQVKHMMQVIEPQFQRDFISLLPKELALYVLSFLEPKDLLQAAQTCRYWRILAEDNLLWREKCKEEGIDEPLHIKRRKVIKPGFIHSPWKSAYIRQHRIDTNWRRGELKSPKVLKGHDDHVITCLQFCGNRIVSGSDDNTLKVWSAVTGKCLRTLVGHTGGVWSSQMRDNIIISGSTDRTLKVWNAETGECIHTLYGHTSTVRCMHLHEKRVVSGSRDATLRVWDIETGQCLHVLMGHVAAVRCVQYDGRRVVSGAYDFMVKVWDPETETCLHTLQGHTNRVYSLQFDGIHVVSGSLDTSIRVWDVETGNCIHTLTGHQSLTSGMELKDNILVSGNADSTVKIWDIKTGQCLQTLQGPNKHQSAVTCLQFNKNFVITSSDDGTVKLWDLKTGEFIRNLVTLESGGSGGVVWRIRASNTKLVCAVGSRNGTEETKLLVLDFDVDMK

Key:
[1] = molecular target: wild-type HTT (Q7), endogenous in STHdh Q7/7 cells (mouse (endogenous in STHdh)) (UniProt P42859); assay: co-IP; co-immunoprecipitation in STHdh cells; antibodies, bait and buffer not described
[2] = molecular target: wild-type HTT (Q7), endogenous in STHdh Q7/7 cells (mouse (endogenous in STHdh)) (UniProt P42859); assay: proximity ligation; Duolink PLA on fixed cells; primary antibodies anti-FBXW7 (Abcam Ab192328, rabbit) and anti-HTT (Millipore Mab2166, mouse); red puncta; endogenous proteins in HeLa or STHdh (Q7, Q111) cells
[3] = molecular target: wild-type huntingtin (wtHTT), endogenous in HeLa cells (human (endogenous in HeLa)) (UniProt P42858); assay: as above
[4] = molecular target: wild-type huntingtin (wtHTT), endogenous in HeLa cells (human (endogenous in HeLa)) (UniProt P42858); assay: proximity ligation; Duolink PLA on fixed HeLa cells transiently expressing mRFP-FBXW7; primary antibodies anti-RFP (Proteintech, rabbit) and anti-HTT (Millipore Mab2166, mouse); green puncta

## FBXW7, endogenous in mouse striatal STHdh cells (from UniProt Q8VBV4 1-710)
[1]
  binding: binds
[2]
  binding: binds

## FBXW7 (F-box and WD repeat domain-containing protein), endogenous in HeLa cells (from UniProt Q969H0 1-707)
[3]
  binding: binds

## mRFP-tagged FBXW7 (α isoform) (from UniProt Q969H0 1-707)
[4]
  binding: binds
